In the supplement of paper PMC7661543:
Differences between knockout arms are mostly noise.

Test system: BT-20
Assay: relative cell number vs DMSO control (72 h) (% of DMSO); higher = less growth inhibition (more cells)
Procedure: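 QMAP-Seq: a pool of 5 breast cancer cell lines (ZR-75-1, SKBR3, HCC-38, MDA-MB-231, BT-20), each carrying 12 doxycycline-inducible Cas9 sgRNA perturbations (11 knockouts plus non-targeting sgNT), was treated with compounds for 72 h at four 10-fold doses (10 nM-10 uM or 1 nM-1 uM range). Barcodes were amplified and sequenced, and cell number was interpolated from 293T spike-in standard curves. The result is expressed as % of the median of DMSO wells. Two biological replicates.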

O=C(NOCC(O)CO)c1cc(Br)c(F)c(F)c1Nc1ccc(I)cc1F (configuration not stated)
Conditions	relative cell number
sgRNA knockout: sgATF3, 10 nM	96.5
sgRNA knockout: sgATF3, 100 nM	83.5
sgRNA knockout: sgATF3, 1000 nM	79.4
sgRNA knockout: sgATF3, 10000 nM	89.3
sgRNA knockout: sgATF4, 10 nM	104
sgRNA knockout: sgATF4, 100 nM	97.2
sgRNA knockout: sgATF4, 1000 nM	91.7
sgRNA knockout: sgATF4, 10000 nM	85.8
sgRNA knockout: sgATF6, 10 nM	95.7
sgRNA knockout: sgATF6, 100 nM	85.7
sgRNA knockout: sgATF6, 1000 nM	85.5
sgRNA knockout: sgATF6, 10000 nM	93.8
sgRNA knockout: sgATG7, 10 nM	89.2
sgRNA knockout: sgATG7, 100 nM	84.43
sgRNA knockout: sgATG7, 1000 nM	80.6
sgRNA knockout: sgATG7, 10000 nM	89.1
sgRNA knockout: sgERN1, 10 nM	103
sgRNA knockout: sgERN1, 100 nM	89.5
sgRNA knockout: sgERN1, 1000 nM	84.6
sgRNA knockout: sgERN1, 10000 nM	90.2
sgRNA knockout: sgHSF1, 10 nM	93.9
sgRNA knockout: sgHSF1, 100 nM	88.9
sgRNA knockout: sgHSF1, 1000 nM	85.7
sgRNA knockout: sgHSF1, 10000 nM	84
sgRNA knockout: sgHSF2, 10 nM	105
sgRNA knockout: sgHSF2, 100 nM	99.5
sgRNA knockout: sgHSF2, 1000 nM	83.3
sgRNA knockout: sgHSF2, 10000 nM	88
sgRNA knockout: sgKEAP1, 10 nM	94.3
sgRNA knockout: sgKEAP1, 100 nM	85.2
sgRNA knockout: sgKEAP1, 1000 nM	81.9
sgRNA knockout: sgKEAP1, 10000 nM	87.5
sgRNA knockout: sgNFE2L2, 10 nM	105
sgRNA knockout: sgNFE2L2, 100 nM	106
sgRNA knockout: sgNFE2L2, 1000 nM	84.4
sgRNA knockout: sgNFE2L2, 10000 nM	99.2
sgRNA knockout: sgSLC35F2, 10 nM	89.7
sgRNA knockout: sgSLC35F2, 100 nM	86.6
sgRNA knockout: sgSLC35F2, 1000 nM	92.4
sgRNA knockout: sgSLC35F2, 10000 nM	92.8
sgRNA knockout: sgXBP1, 10 nM	98.1
sgRNA knockout: sgXBP1, 100 nM	86.89
sgRNA knockout: sgXBP1, 1000 nM	92.9
sgRNA knockout: sgXBP1, 10000 nM	89.1

Cc1ccc(F)c(NC(=O)Nc2ccc(-c3cccc4[nH]nc(N)c34)cc2)c1 [Linifanib]
Conditions	relative cell number
sgRNA knockout: sgATF3, 10 nM	84.6
sgRNA knockout: sgATF3, 100 nM	111
sgRNA knockout: sgATF3, 1000 nM	111
sgRNA knockout: sgATF3, 10000 nM	54.9
sgRNA knockout: sgATF4, 10 nM	105
sgRNA knockout: sgATF4, 100 nM	114
sgRNA knockout: sgATF4, 1000 nM	121
sgRNA knockout: sgATF4, 10000 nM	59.4
sgRNA knockout: sgATF6, 10 nM	87.4
sgRNA knockout: sgATF6, 100 nM	107
sgRNA knockout: sgATF6, 1000 nM	96.5
sgRNA knockout: sgATF6, 10000 nM	47
sgRNA knockout: sgATG7, 10 nM	91.4
sgRNA knockout: sgATG7, 100 nM	112
sgRNA knockout: sgATG7, 1000 nM	108
sgRNA knockout: sgATG7, 10000 nM	50.8
sgRNA knockout: sgERN1, 10 nM	95.9
sgRNA knockout: sgERN1, 100 nM	101
sgRNA knockout: sgERN1, 1000 nM	109
sgRNA knockout: sgERN1, 10000 nM	53.2
sgRNA knockout: sgHSF1, 10 nM	96
sgRNA knockout: sgHSF1, 100 nM	106
sgRNA knockout: sgHSF1, 1000 nM	117
sgRNA knockout: sgHSF1, 10000 nM	50.6
sgRNA knockout: sgHSF2, 10 nM	79.6
sgRNA knockout: sgHSF2, 100 nM	111
sgRNA knockout: sgHSF2, 1000 nM	107
sgRNA knockout: sgHSF2, 10000 nM	54.9
sgRNA knockout: sgKEAP1, 10 nM	92.5
sgRNA knockout: sgKEAP1, 100 nM	101
sgRNA knockout: sgKEAP1, 1000 nM	108
sgRNA knockout: sgKEAP1, 10000 nM	43.1
sgRNA knockout: sgNFE2L2, 10 nM	92.9
sgRNA knockout: sgNFE2L2, 100 nM	103
sgRNA knockout: sgNFE2L2, 1000 nM	100.7
sgRNA knockout: sgNFE2L2, 10000 nM	52.1
sgRNA knockout: sgSLC35F2, 10 nM	92.6
sgRNA knockout: sgSLC35F2, 100 nM	110
sgRNA knockout: sgSLC35F2, 1000 nM	104
sgRNA knockout: sgSLC35F2, 10000 nM	41.5
sgRNA knockout: sgXBP1, 10 nM	89.7
sgRNA knockout: sgXBP1, 100 nM	88
sgRNA knockout: sgXBP1, 1000 nM	111
sgRNA knockout: sgXBP1, 10000 nM	51.9

CC(=O)Nc1cccc(-n2c(=O)n(C3CC3)c(=O)c3c(Nc4ccc(I)cc4F)n(C)c(=O)c(C)c32)c1 [Trametinib]
Conditions	relative cell number
sgRNA knockout: sgATF3, 10 nM	96.7
sgRNA knockout: sgATF3, 100 nM	88.8
sgRNA knockout: sgATF3, 1000 nM	89.1
sgRNA knockout: sgATF3, 10000 nM	72.9
sgRNA knockout: sgATF4, 10 nM	95.8
sgRNA knockout: sgATF4, 100 nM	77.19
sgRNA knockout: sgATF4, 1000 nM	91.8
sgRNA knockout: sgATF4, 10000 nM	81.9
sgRNA knockout: sgATF6, 10 nM	98.7
sgRNA knockout: sgATF6, 100 nM	77
sgRNA knockout: sgATF6, 1000 nM	103
sgRNA knockout: sgATF6, 10000 nM	53.6
sgRNA knockout: sgATG7, 10 nM	104
sgRNA knockout: sgATG7, 100 nM	69.9
sgRNA knockout: sgATG7, 1000 nM	86.2
sgRNA knockout: sgATG7, 10000 nM	70.61
sgRNA knockout: sgERN1, 10 nM	97.7
sgRNA knockout: sgERN1, 100 nM	75.2
sgRNA knockout: sgERN1, 1000 nM	89.7
sgRNA knockout: sgERN1, 10000 nM	64.3
sgRNA knockout: sgHSF1, 10 nM	99.8
sgRNA knockout: sgHSF1, 100 nM	88.1
sgRNA knockout: sgHSF1, 1000 nM	95.1
sgRNA knockout: sgHSF1, 10000 nM	72.3
sgRNA knockout: sgHSF2, 10 nM	102
sgRNA knockout: sgHSF2, 100 nM	85.9
sgRNA knockout: sgHSF2, 1000 nM	85.2
sgRNA knockout: sgHSF2, 10000 nM	73.7
sgRNA knockout: sgKEAP1, 10 nM	93.5
sgRNA knockout: sgKEAP1, 100 nM	72.5
sgRNA knockout: sgKEAP1, 1000 nM	90.8
sgRNA knockout: sgKEAP1, 10000 nM	86.6
sgRNA knockout: sgNFE2L2, 10 nM	104
sgRNA knockout: sgNFE2L2, 100 nM	77.2
sgRNA knockout: sgNFE2L2, 1000 nM	87.6
sgRNA knockout: sgNFE2L2, 10000 nM	85.5
sgRNA knockout: sgSLC35F2, 10 nM	99.8
sgRNA knockout: sgSLC35F2, 100 nM	82.3
sgRNA knockout: sgSLC35F2, 1000 nM	92.3
sgRNA knockout: sgSLC35F2, 10000 nM	72.1
sgRNA knockout: sgXBP1, 10 nM	102
sgRNA knockout: sgXBP1, 100 nM	87.8
sgRNA knockout: sgXBP1, 1000 nM	85.6
sgRNA knockout: sgXBP1, 10000 nM	80.5
